# Experimental data: article PMC7298293
# Sequences of proteins named here, by UniProt entry; tags and fusion partners are left off. A change or cut given only in a name is not applied to a line headed by its entry.
# UniProt P06493: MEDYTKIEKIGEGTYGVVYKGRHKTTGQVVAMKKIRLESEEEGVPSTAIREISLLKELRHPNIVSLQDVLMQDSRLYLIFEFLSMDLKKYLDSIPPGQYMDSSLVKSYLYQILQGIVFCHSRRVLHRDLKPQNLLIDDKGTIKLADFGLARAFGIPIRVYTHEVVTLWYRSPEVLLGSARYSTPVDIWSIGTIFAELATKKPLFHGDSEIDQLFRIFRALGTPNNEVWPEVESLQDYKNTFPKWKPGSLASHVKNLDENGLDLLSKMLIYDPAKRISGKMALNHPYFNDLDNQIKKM
# UniProt P14635: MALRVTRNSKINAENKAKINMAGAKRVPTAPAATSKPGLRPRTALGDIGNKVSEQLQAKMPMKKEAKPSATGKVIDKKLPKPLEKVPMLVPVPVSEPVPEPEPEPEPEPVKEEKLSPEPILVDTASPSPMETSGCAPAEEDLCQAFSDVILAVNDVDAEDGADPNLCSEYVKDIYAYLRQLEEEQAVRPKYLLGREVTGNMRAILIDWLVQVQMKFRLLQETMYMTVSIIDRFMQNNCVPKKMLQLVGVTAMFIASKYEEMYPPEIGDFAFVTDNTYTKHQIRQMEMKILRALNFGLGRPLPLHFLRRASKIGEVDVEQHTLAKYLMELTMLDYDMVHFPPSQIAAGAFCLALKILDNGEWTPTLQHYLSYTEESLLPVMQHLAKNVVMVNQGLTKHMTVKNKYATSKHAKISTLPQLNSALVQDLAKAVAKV
# No constants are given. Whether binding was seen depends on the method and setting. Some results given as binding are weak or reduced against the parent protein; the word gives no strength. For part of these data: Where a sequence is shown, tags or fusion partners need not be part of it.
# Columns and labels:
# [1] = biological target: MBP-MAD1:MAD2 complex (full-length MAD1) (UniProt Q9Y6D9); assay: low-angle metal shadowing electron microscopy; SEC fraction holding the complex, sprayed on mica, rotary-shadowed with platinum/carbon; both purified
# [2] = biological target: T1, LacI-MAD1-FL (full length: aa 1–718) (human) (UniProt Q9Y6D9); assay: LacO/LacI tethering, co-recruitment seen by microscopy; LacI-MAD1 recruited to a LacO array on chromosome 1 in U2OS cells; Cyclin B1 seen by immunofluorescence (Fig 1F) or live imaging of Cyclin B1-mCherry (Fig 1G)
# T1 sequence: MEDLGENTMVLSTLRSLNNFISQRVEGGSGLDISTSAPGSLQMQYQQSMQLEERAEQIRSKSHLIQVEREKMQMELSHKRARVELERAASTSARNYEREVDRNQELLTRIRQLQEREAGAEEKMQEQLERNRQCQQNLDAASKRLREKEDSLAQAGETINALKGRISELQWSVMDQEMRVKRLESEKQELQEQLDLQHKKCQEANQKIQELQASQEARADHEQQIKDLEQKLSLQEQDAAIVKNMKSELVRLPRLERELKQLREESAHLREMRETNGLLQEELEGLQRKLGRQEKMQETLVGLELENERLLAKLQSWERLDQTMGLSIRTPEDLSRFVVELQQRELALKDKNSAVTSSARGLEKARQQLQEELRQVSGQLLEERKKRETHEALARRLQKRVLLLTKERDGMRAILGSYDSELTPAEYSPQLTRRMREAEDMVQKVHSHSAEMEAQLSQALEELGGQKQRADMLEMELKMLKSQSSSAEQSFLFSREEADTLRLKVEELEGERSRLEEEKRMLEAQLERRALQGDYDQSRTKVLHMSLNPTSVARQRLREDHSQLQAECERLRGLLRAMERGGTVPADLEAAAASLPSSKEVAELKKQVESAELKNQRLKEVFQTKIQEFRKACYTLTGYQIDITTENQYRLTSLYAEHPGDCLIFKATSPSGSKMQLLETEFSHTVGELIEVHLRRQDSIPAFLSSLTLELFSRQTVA
# [3] = biological target: T2, MBP-MAD1^1–92-SNAP (human) (UniProt Q9Y6D9); assay: SEC; analytical SEC; proteins mixed at 1:1 molar ratio, typically 5 μM, 30 min on ice; 4°C; 50 mM Hepes pH 8.0, 150 mM NaCl, 2 mM TCEP; fractions on SDS-PAGE, Coomassie; both purified
# T2 sequence: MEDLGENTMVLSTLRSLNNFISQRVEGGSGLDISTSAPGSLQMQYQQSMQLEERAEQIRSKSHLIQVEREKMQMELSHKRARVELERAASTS
# [4] = biological target: MBP-MAD1:MAD2 complex (full-length MAD1) (UniProt Q9Y6D9); assay: as above
# [5] = biological target: T3, MBP-MAD1^41–62 (human) (UniProt Q9Y6D9); assay: as above
# T3 sequence: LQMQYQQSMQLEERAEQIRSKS
# [6] = biological target: MBP-MAD1^Δ93:MAD2 complex (UniProt Q9Y6D9); assay: as above
binding [2],binding [3],binding [4],Substance,further results
,,,GST-CDK1:Cyclin B1 complex (from UniProt P06493 1-297; P14635 1-433),binding [1]: binds
binds,,,"Cyclin B1 (endogenous, U2OS cells) (from UniProt P14635 1-433)",
,binds,binds,Cyclin B1 (from UniProt P14635 1-433),
,binds,binds,Cyclin B1:CDK1 complex (from UniProt P14635 1-433; P06493 1-297),binding [5]: binds; binding [6]: no binding (tested: 5 μM)
binds,,,Cyclin B1-mCherry (from UniProt P14635 1-433),
